In patent US20180193454A1 (IMMUNEXT, published 2018):
Residue numbers refer to the chain shown, from its start. No constants are given. Whether binding was seen depends on the method and setting. Some binding calls cover weakened binding; strength is not graded here. Values belong to the binder of their own block, whether it stands above or below them.

The chains behind the UniProt entries cited, without tags or fusion partners.
UniProt P29965: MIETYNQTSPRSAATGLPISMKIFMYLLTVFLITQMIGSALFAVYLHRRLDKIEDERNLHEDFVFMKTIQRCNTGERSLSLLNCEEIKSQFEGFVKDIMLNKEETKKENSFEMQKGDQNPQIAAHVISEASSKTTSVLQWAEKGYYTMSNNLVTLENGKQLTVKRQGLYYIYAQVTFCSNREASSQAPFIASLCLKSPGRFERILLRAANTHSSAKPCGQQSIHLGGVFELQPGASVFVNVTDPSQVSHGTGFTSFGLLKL

What was measured:
[1] = target: CD154 expressed on cells (CD154 expressing Jurkat cells; T cell CD154) (UniProt P29965); assay: binding to CD154 expressing Jurkat cells (legend calls it BIAcore binding assays), FIG. 3
[2] = target: CD154 expressed on cells (CD154 expressing Jurkat cells; T cell CD154) (UniProt P29965); assay: binding to CD40L (CD154) expressing Jurkat cells, readout % normalized mean MFI (panel title 'CD40L Jurkat Binding'; legend paragraph 14 calls it a BIAcore assay)

binding [1]: binds
binding [2]: binds
B1: IDEC-131, humanized anti-human CD154 IgG1 antibody (antibody, V domains shown)
VH: EVQLQESGPGLVKPSETLSLTCTVSGDSITNGFWIWIRKPPGNKLEYMGYISYSGSTYYNPSLKSRISISRDTSKNQFSLKLSSVTAADTGVYYCACRSYGRTPYYFDFWGQGTTLTVSS
VL: DIVMTQSPSFLSASVGDRVTITCKASQNVITAVAWYQQKPGKSPKLLIYSASNRYTGVPDRFSGSGSGTDFTLTISSLQPEDFADYFCQQYNSYPYTFGGGTKLEIK
notes: Humanized human IgG1 derived from mouse antibody 24-31

binding [2]: binds
B2: INX021 (variant 21), humanized anti-human CD154 IgG1 antibody derived from IDEC-131 (antibody, V domains shown)
VH: B1 VH with C97Y, F109Y
VL: B1 VL with Q27S, V29L, I30G, T31H, N92D, S93D
